Results are given in words; binding and its absence hold for the method and conditions named. In cells and extracts the contact can be indirect. Some entries that bind do so weakly or less than the wild type.

Chains of the proteins cited; added tags and fusions are not shown.
UniProt P60953: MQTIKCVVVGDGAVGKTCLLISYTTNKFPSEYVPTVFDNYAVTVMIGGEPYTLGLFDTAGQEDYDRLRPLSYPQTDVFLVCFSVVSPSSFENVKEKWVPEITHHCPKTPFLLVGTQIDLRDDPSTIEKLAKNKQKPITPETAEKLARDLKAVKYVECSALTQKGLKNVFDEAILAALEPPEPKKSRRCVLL
UniProt Q13153: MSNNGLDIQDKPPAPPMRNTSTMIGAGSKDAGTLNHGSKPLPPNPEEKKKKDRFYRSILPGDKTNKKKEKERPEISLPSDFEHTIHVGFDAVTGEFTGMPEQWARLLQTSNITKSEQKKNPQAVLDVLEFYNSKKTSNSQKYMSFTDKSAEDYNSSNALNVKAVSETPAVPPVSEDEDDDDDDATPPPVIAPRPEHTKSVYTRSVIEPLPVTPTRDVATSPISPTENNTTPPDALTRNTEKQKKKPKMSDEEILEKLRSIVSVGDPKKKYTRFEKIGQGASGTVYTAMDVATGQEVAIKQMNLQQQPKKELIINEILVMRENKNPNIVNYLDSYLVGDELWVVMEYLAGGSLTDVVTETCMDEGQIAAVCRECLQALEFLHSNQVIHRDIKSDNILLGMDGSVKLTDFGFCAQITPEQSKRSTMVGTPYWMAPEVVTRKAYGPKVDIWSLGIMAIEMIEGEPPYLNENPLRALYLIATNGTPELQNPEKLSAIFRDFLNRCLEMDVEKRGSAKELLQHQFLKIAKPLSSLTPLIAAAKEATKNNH

In this test the target is FLAG-CDC42 WT (cell division cycle 42) (human) (UniProt P60953). The experiment in a line: co-IP; FLAG-CDC42 (WT or K16E) and HA-PAK1 co-expressed in HEK293T cells for 24 h; 500 ug lysate (Pierce IP lysis buffer with protease and phosphatase inhibitors) incubated with anti-FLAG magnetic agarose for 2 h at 4 °C; eluate blotted for PAK1.

For “p21-activated kinase (PAK)1, HA-PAK1 (from UniProt Q13153 1-545)”, the binding entry is given as “binds”.

These data come from PMC10661826.
